Assay results taken from patent US7560259B2, “Glutathione S-transferase sequence variants” (Mayo Foundation for Medical Education and Research, priority 2005, dated 2009).

Test system: rabbit reticulocyte lysate (RRL)
Assay: In vitro translation and protein degradation of 35S-labeled GSTO2 allozymes in rabbit reticulocyte lysate
Conditions: after 24 hours, untreated RRL with ATP generating system, 37° C.
Method: In vitro Translation and Degradation: Selected GSTO2 expression constructs were transcribed and translated in vitro in the presence of ^35S-methionine (1000 Ci/mmol, 2.5 mCi total activity) (Amersham Pharmacia Biotech) using the TNT coupled rabbit reticulocyte lysate (RRL) system (Promega, Madison, Wis.). Reaction mixtures used to generate radioactively labeled protein were incubated at 30° C. for 90 minutes, and 5 μl aliquots were used to perform SDS-PAGE with 10% gels. Protein degradation studies were performed as described (Wang et al. (2003) Pharmacogenet. 13:555-564). Briefly, 50 μl of an adenosine 5′-triphosphate (ATP) generating system, 50 μl of “untreated” RRL, and 10 μl of ^35S-methionine radioactively labeled GSTO2 allozyme were mixed. This mixture was incubated at 37° C., and 10 μl aliquots were removed at various time intervals, followed by SDS-PAGE. After electrophoresis, the gels were dried, exposed to X-ray film and the bands of radioactively labeled protein were quantified.
To investigate the mechanisms responsible for the striking decrease in expression of the GSTO2 Cys130Tyr and Leu158Ile allozymes, protein degradation studies were performed using RRL. Radioactive WT and variant GSTO2 allozymes were synthesized using “treated” RRL, and the recombinant proteins were incubated for various periods of time with “untreated” RRL and an ATP generating system to follow the time course of protein degradation. […] After 24 hours, 26% of Cys130Tyr, 6.6% of Leu158Ile, 5.6% of Asn142Asp/Leu158Ile, and 73% of the WT protein remained. Therefore, accelerated degradation appeared to be responsible, at least in part, for differences in levels of the GSTO2 variant allozymes after expression in COS-1 cells.

Molecule	protein remaining
Cys130Tyr: GSTO2 allozyme having a tyrosine at amino acid residue 130 in place of a cysteine residue (protein) MSGDATRTLGKGSQPPGPVPEGLIRIYSMRFCPYSHRTRLVLKAKDIRHEVVNINLRNKPEWYYTKHPFGHIPVLETSQCQLIYESVIACEYLDDAYPGRKLFPYDPYERARQKMLLELFCKVPHLTKEYLVALRCGRECTNLKAALRQEFSNLEEILEYQNTTFFGGTCISMIDYLLWPWFERLDVYGILDCVSHTPALRLWISAMKWDPTVCALLMDKSIFQGFLNLYFQNNPNAFDFGLC	26%
Leu158Ile: GSTO2 allozyme having an isoleucine at amino acid 158 in place of a leucine residue (protein) MSGDATRTLGKGSQPPGPVPEGLIRIYSMRFCPYSHRTRLVLKAKDIRHEVVNINLRNKPEWYYTKHPFGHIPVLETSQCQLIYESVIACEYLDDAYPGRKLFPYDPYERARQKMLLELFCKVPHLTKECLVALRCGRECTNLKAALRQEFSNLEEIIEYQNTTFFGGTCISMIDYLLWPWFERLDVYGILDCVSHTPALRLWISAMKWDPTVCALLMDKSIFQGFLNLYFQNNPNAFDFGLC	6.6%
Asn142Asp/Leu158Ile: double variant GSTO2 allozyme, Asn142Asp and Leu158Ile (protein) MSGDATRTLGKGSQPPGPVPEGLIRIYSMRFCPYSHRTRLVLKAKDIRHEVVNINLRNKPEWYYTKHPFGHIPVLETSQCQLIYESVIACEYLDDAYPGRKLFPYDPYERARQKMLLELFCKVPHLTKECLVALRCGRECTDLKAALRQEFSNLEEIIEYQNTTFFGGTCISMIDYLLWPWFERLDVYGILDCVSHTPALRLWISAMKWDPTVCALLMDKSIFQGFLNLYFQNNPNAFDFGLC	5.6%
WT: reference (wild type) human GSTO2 polypeptide, SEQ ID NO:9 (protein, Homo sapien) MSGDATRTLGKGSQPPGPVPEGLIRIYSMRFCPYSHRTRLVLKAKDIRHEVVNINLRNKPEWYYTKHPFGHIPVLETSQCQLIYESVIACEYLDDAYPGRKLFPYDPYERARQKMLLELFCKVPHLTKECLVALRCGRECTNLKAALRQEFSNLEEILEYQNTTFFGGTCISMIDYLLWPWFERLDVYGILDCVSHTPALRLWISAMKWDPTVCALLMDKSIFQGFLNLYFQNNPNAFDFGLC	73%
